In patent publication US20240307358 (published 2024):
Where a sequence shows no end group, the ends are not given.

Assay: general procedure: Fmoc solid-phase peptide synthesis; Wang Resin (EMD Millipore); HBTU/DIPEA
Conditions: whole synthesis, scale 0.125 mmol

Sequence: WHWLPNLRHYAS
- final LC-MS purity: >95%
